Some entries share one result that the patent states for a list of compounds.
Tested on: PDE4D, in particular, PDE4D short isoform
Test: Protein degradation assay, western blot, PDE4D in A549 cells
Assay type: cell-based
Conditions: 24 h treatment, 'as high as about' = upper value for the group
Description: Example B2. Protein Degradation Assay
A549 cells were grown in RPMI 1640 media supplemented with 10% fetal bovine serum, streptomycin, and penicillin. The cells were plated in 6-well plates at 300,000 cells/well in the growth media. After overnight incubation, the cells were treated with DMSO (control) or a compound at predetermined concentrations (e.g., 10 nM, 100 nM, 1 μM, 3 μM, or 10 μM) for 24 h at 37° C. under 5% CO2. Whole cell extracts were prepared using an immunoprecipitation (IP) lysis buffer. The cells were washed once in PBS, and the cell pellets were resuspended in the IP lysis buffer and incubated for 15 min on ice. Cells debris was removed by centrifugation and the cleared whole cell lysates were transferred to new tubes for further analysis.
For a western blot analysis, the whole cell protein extracts were separated on 4-12% SDS-polyacrylamide gels, transferred to nitrocellulose, and probed with primary antibodies. Membranes were subsequently washed and probed with IRDYE® secondary antibodies. The signals were detected using an ODYSSEY® Imaging System. The antibodies used in the assay included anti-PDE4B antibody; anti-PDE4D antibodies (top, bottom, and short isoform); β-actin mouse monoclonal antibody; IRDYE® 680RD goat anti-rabbit antibody; and IRDYE® 800CW goat anti-mouse antibody. The compounds provided herein are PDE4 protein degraders.

| Compound | PDE4D (in particular PDE4D short isoform) degradation relative to DMSO [%] |
| --- | --- |
| CCOc1cc([C@@H](CS(C)(=O)=O)N2C(=O)c3cc(CCCCCCCN4CCC(c5cc(F)cc6c5CN(C5CCC(=O)NC5=O)C6=O)CC4)cc(NC(C)=O)c3C2=O)ccc1OC (stereo partly drawn) [Compound A1, N-(6-(7-(4-(2-(2,6-Dioxopiperidin-3-yl)-6-fluoro-1-oxoisoindolin-4-yl)piperidin-1-yl)heptyl)-2-((S)-1-(3-ethoxy-4-methoxyphenyl)-2-(methylsulfonyl)ethyl)-1,3-dioxoisoindolin-4-yl)acetamide] | ≤ 95 |
| CCOc1cc([C@@H](CS(C)(=O)=O)N2C(=O)c3cc(C#CCCCCCN4CCC(c5cc(F)cc6c5CN(C5CCC(=O)NC5=O)C6=O)CC4)cc(NC(C)=O)c3C2=O)ccc1OC (stereo partly drawn) [Compound A2, N-(6-(7-(4-(2-(2,6-Dioxopiperidin-3-yl)-6-fluoro-1-oxoisoindolin-4-yl)-piperidin-1-yl)hept-1-yn-1-yl)-2-((S)-1-(3-ethoxy-4-methoxyphenyl)-2-(methylsulfonyl)ethyl)-1,3-dioxoisoindolin-4-yl)acetamide] | ≤ 95 |
| CCOc1cc([C@@H](CS(C)(=O)=O)N2C(=O)c3cc(CCCCC(=O)N4CCC(C#Cc5cccc6c5CN(C5CCC(=O)NC5=O)C6=O)CC4)cc(NC(C)=O)c3C2=O)ccc1OC (stereo partly drawn) [Compound A3, N-(6-(5-(4-((2-(2,6-Dioxopiperidin-3-yl)-1-oxoisoindolin-4-yl)ethynyl)piperidin-1-yl)-5-oxopentyl)-2-((S)-1-(3-ethoxy-4-methoxyphenyl)-2-(methylsulfonyl)ethyl)-1,3-dioxoisoindolin-4-yl)acetamide] | ≤ 95 |
| CCOc1cc([C@@H](CS(C)(=O)=O)N2C(=O)c3cccc(NC(=O)COCCOCCOCCOCCNc4cccc5c4C(=O)N(C4CCC(=O)NC4=O)C5=O)c3C2=O)ccc1OC (stereo partly drawn) [Compound A4, 14-((2-(2,6-Dioxopiperidin-3-yl)-1,3-dioxoisoindolin-4-yl)amino)-N-(2-((S)-1-(3-ethoxy-4-methoxyphenyl)-2-(methylsulfonyl)ethyl)-1,3-dioxoisoindolin-4-yl)-3,6,9,12-tetraoxatetradecan-1-amide] | ≤ 95 |
| CCOc1cc([C@@H](CS(C)(=O)=O)N2C(=O)c3cccc(NC(=O)CCCCCCCCN4CCC(c5cc6c(cc5F)C(=O)N(C5CCC(=O)NC5=O)C6)CC4)c3C2=O)ccc1OC (stereo partly drawn) [Compound A7, 9-(4-(2-(2,6-Dioxopiperidin-3-yl)-6-fluoro-1-oxoisoindolin-5-yl)piperidin-1-yl)-N-(2-((S)-1-(3-ethoxy-4-methoxyphenyl)-2-(methylsulfonyl)ethyl)-1,3-dioxoisoindolin-4-yl)-nonanamide] | ≤ 95 |
| CCOc1cc([C@@H](CS(C)(=O)=O)N2C(=O)c3cc(CCCCCCCC4CCN(c5cccc6c5C(=O)N(C5CCC(=O)NC5=O)C6=O)CC4)cc(NC(C)=O)c3C2=O)ccc1OC (stereo partly drawn) [Compound A8, N-(6-(7-(1-(2-(2,6-Dioxopiperidin-3-yl)-1,3-dioxoisoindolin-4-yl)piperidin-4-yl)-heptyl)-2-((S)-1-(3-ethoxy-4-methoxyphenyl)-2-(methylsulfonyl)ethyl)-1,3-dioxoisoindolin-4-yl)acetamide] | ≤ 95 |
| CCOc1cc([C@@H](CS(C)(=O)=O)N2C(=O)c3cccc(NC(=O)CCOCCOCCNc4cccc5c4C(=O)N(C4CCC(=O)NC4=O)C5=O)c3C2=O)ccc1OC (stereo partly drawn) [Compound A9, 3-(2-(2-((2-(2,6-Dioxopiperidin-3-yl)-1,3-dioxoisoindolin-4-yl)amino)-ethoxy)ethoxy)-N-(2-((S)-1-(3-ethoxy-4-methoxyphenyl)-2-(methylsulfonyl)ethyl)-1,3-dioxoisoindolin-4-yl)propanamide] | ≤ 95 |

From patent US20240124418A1 (BioTheryX, Inc., priority 2020, published 2024)
